Values are animals surviving of animals treated; these mice carried no tumour. Survivors were counted at the toxicity check, usually on the fifth day, unless a day is given; later deaths do not show. Schedules are NCI's codes, taken here to give the interval after Q, in days (D) or hours (H), and the number of doses after X. Some entries hold several experiments; the values are given in rising order.
Tested on: CD2F1 mice, nontumored, toxicity/survival
Experiment: NCI In Vivo Anticancer Drug Screen. Data for tumor model Nontumored Animals (Toxicity Test) in CD2F1 (CDF1) mice
[1] = dose: 0.25 mg/kg/injection, schedule: Q03HX016 (ip), vehicle: saline
[2] = dose: 0.25 mg/kg/injection, schedule: Q03HX024 (ip), vehicle: saline
[3] = dose: 0.5 mg/kg/injection, schedule: Q01DX009 (ip), vehicle: saline
[4] = dose: 0.5 mg/kg/injection, schedule: Q03HX008 (ip), vehicle: saline
[5] = dose: 0.5 mg/kg/injection, schedule: Q03HX016 (ip), vehicle: saline
[6] = dose: 0.5 mg/kg/injection, schedule: Q03HX024 (ip), vehicle: saline
[7] = dose: 1.0 mg/kg/injection, schedule: Q01DX009 (ip), vehicle: saline
[8] = dose: 1.0 mg/kg/injection, schedule: Q03HX008 (ip), vehicle: saline
[9] = dose: 1.0 mg/kg/injection, schedule: Q03HX016 (ip), vehicle: saline
[10] = dose: 1.0 mg/kg/injection, schedule: Q03HX024 (ip), vehicle: saline
[11] = dose: 2.0 mg/kg/injection, schedule: Q01DX009 (ip), vehicle: saline
[12] = dose: 2.0 mg/kg/injection, schedule: Q01DX009 (oral), vehicle: saline
[13] = dose: 2.0 mg/kg/injection, schedule: Q03HX008 (ip), vehicle: saline
[14] = dose: 2.0 mg/kg/injection, schedule: Q03HX016 (ip), vehicle: saline
[15] = dose: 2.0 mg/kg/injection, schedule: Q04DX003 (ip), vehicle: saline
[16] = dose: 2.0 mg/kg/injection, schedule: Q08DX002 (ip), vehicle: saline
[17] = dose: 4.0 mg/kg/injection, schedule: Q01DX001 (ip), vehicle: saline
[18] = dose: 4.0 mg/kg/injection, schedule: Q01DX009 (ip), vehicle: saline
[19] = dose: 4.0 mg/kg/injection, schedule: Q01DX009 (oral), vehicle: saline
[20] = dose: 4.0 mg/kg/injection, schedule: Q04DX003 (ip), vehicle: saline
[21] = dose: 4.0 mg/kg/injection, schedule: Q08DX002 (ip), vehicle: saline
[22] = dose: 8.0 mg/kg/injection, schedule: Q01DX001 (ip), vehicle: saline
[23] = dose: 8.0 mg/kg/injection, schedule: Q01DX001 (oral), vehicle: saline
[24] = dose: 8.0 mg/kg/injection, schedule: Q01DX009 (oral), vehicle: saline
[25] = dose: 8.0 mg/kg/injection, schedule: Q04DX003 (ip), vehicle: saline
[26] = dose: 8.0 mg/kg/injection, schedule: Q08DX002 (ip), vehicle: saline
[27] = dose: 16.0 mg/kg/injection, schedule: Q01DX001 (ip), vehicle: saline
[28] = dose: 16.0 mg/kg/injection, schedule: Q01DX001 (oral), vehicle: saline
[29] = dose: 16.0 mg/kg/injection, schedule: Q01DX009 (oral), vehicle: saline
[30] = dose: 16.0 mg/kg/injection, schedule: Q08DX002 (ip), vehicle: saline
[31] = dose: 32.0 mg/kg/injection, schedule: Q01DX001 (oral), vehicle: saline

SMILES: COc1cc([C@@H]2c3cc4c(cc3[C@@H](OC3OC5CO[C@@H](c6cccs6)OC5C(O)C3O)[C@H]3COC(=O)[C@H]23)OCO4)cc(OC)c1O (stereo partly specified)
- survivor count [1]: 8 of 8
- survivor count [2]: 8 of 8
- survivor count (dose: 0.5 mg/kg/injection, schedule: Q01DX005 (ip), vehicle: saline): 8 of 8
- survivor count [3]: 8 of 8
- survivor count (dose: 0.5 mg/kg/injection, schedule: Q01DX009 (sc), vehicle: saline): 8 of 8
- survivor count [4]: 8 of 8
- survivor count [5]: 8 of 8
- survivor count [6]: 8 of 8
- survivor count (dose: 1.0 mg/kg/injection, schedule: Q01DX005 (ip), vehicle: saline): 8 of 8
- survivor count [7]: 8 of 8
- survivor count (dose: 1.0 mg/kg/injection, schedule: Q01DX009 (sc), vehicle: saline): 8 of 8
- survivor count [8]: 8 of 8
- survivor count [9]: 8 of 8
- survivor count [10]: 8 of 8
- survivor count (dose: 2.0 mg/kg/injection, schedule: Q01DX001 (sc), vehicle: saline): 8 of 8
- survivor count (dose: 2.0 mg/kg/injection, schedule: Q01DX005 (ip), vehicle: saline): 8 of 8
- survivor count [11]: 8 of 8
- survivor count [12]: 8 of 8
- survivor count (dose: 2.0 mg/kg/injection, schedule: Q01DX009 (sc), vehicle: saline): 8 of 8
- survivor count [13]: 8 of 8
- survivor count [14]: 8 of 8
- survivor count (dose: 2.0 mg/kg/injection, schedule: Q03HX024 (ip), vehicle: saline): 8 of 8
- survivor count [15]: 8 of 8
- survivor count [16]: 8 of 8
- survivor count [17]: 8 of 8
- survivor count (dose: 4.0 mg/kg/injection, schedule: Q01DX001 (sc), vehicle: saline): 8 of 8
- survivor count (dose: 4.0 mg/kg/injection, schedule: Q01DX005 (ip), vehicle: saline): 7 of 8
- survivor count [18]: 8 of 8
- survivor count [19]: 8 of 8
- survivor count (dose: 4.0 mg/kg/injection, schedule: Q01DX009 (sc), vehicle: saline): 8 of 8
- survivor count (dose: 4.0 mg/kg/injection, schedule: Q03HX008 (ip), vehicle: saline): 3 of 8
- survivor count (dose: 4.0 mg/kg/injection, schedule: Q03HX016 (ip), vehicle: saline): 2 of 8
- survivor count (dose: 4.0 mg/kg/injection, schedule: Q03HX024 (ip), vehicle: saline): 5 of 8
- survivor count [20]: 8 of 8
- survivor count [21]: 8 of 8
- survivor count [22]: 8 of 8
- survivor count [23]: 8 of 8
- survivor count (dose: 8.0 mg/kg/injection, schedule: Q01DX001 (sc), vehicle: saline): 8 of 8
- survivor count (dose: 8.0 mg/kg/injection, schedule: Q01DX005 (ip), vehicle: saline): 8 of 8
- survivor count (dose: 8.0 mg/kg/injection, schedule: Q01DX009 (ip), vehicle: saline): 8 of 8
- survivor count [24]: 7 of 8
- survivor count (dose: 8.0 mg/kg/injection, schedule: Q01DX009 (sc), vehicle: saline): 6 of 8
- survivor count (dose: 8.0 mg/kg/injection, schedule: Q03HX008 (ip), vehicle: saline): 2 of 8
- survivor count [25]: 8 of 8
- survivor count [26]: 8 of 8
- survivor count [27]: 8 of 8
- survivor count [28]: 8 of 8
- survivor count (dose: 16.0 mg/kg/injection, schedule: Q01DX001 (sc), vehicle: saline): 8 of 8
- survivor count [29]: 8 of 8
- survivor count (dose: 16.0 mg/kg/injection, schedule: Q04DX003 (ip), vehicle: saline): 7 of 8
- survivor count [30]: 7 of 8
- survivor count (dose: 32.0 mg/kg/injection, schedule: Q01DX001 (ip), vehicle: saline): 6 of 8
- survivor count [31]: 7 of 8
- survivor count (dose: 32.0 mg/kg/injection, schedule: Q01DX001 (sc), vehicle: saline): 8 of 8
- survivor count (dose: 32.0 mg/kg/injection, schedule: Q01DX009 (oral), vehicle: saline): 6 of 8
- survivor count (dose: 32.0 mg/kg/injection, schedule: Q04DX003 (ip), vehicle: saline): 5 of 8
- survivor count (dose: 32.0 mg/kg/injection, schedule: Q08DX002 (ip), vehicle: saline): 7 of 8
- survivor count (dose: 64.0 mg/kg/injection, schedule: Q01DX001 (ip), vehicle: saline): 0 of 8
- survivor count (dose: 64.0 mg/kg/injection, schedule: Q01DX001 (oral), vehicle: saline): 0 of 8

SMILES: Nc1ncc2ccccc2c1-c1ccc(NC(=O)CN(CCCl)CCCl)cc1
- survivor count (dose: 1.0 mg/kg/injection, schedule: Q01DX001 (ip), vehicle: other): 2 of 2
- survivor count (dose: 10.0 mg/kg/injection, schedule: Q01DX001 (ip), vehicle: other): 2 of 2
- survivor count (dose: 100.0 mg/kg/injection, schedule: Q01DX001 (ip), vehicle: other): 2 of 2

SMILES: NC(=O)c1cn(C2OC(CO)C(O)C2O)c2ncnc(N)c12 (stereo unspecified)
- survivor count (dose: 0.06 mg/kg/injection, schedule: Q03HX024 (ip), vehicle: saline): 8 of 8
- survivor count (dose: 0.13 mg/kg/injection, schedule: Q01DX009 (ip), vehicle: saline): 8 of 8
- survivor count (dose: 0.13 mg/kg/injection, schedule: Q03HX008 (ip), vehicle: saline): 8 of 8
- survivor count (dose: 0.13 mg/kg/injection, schedule: Q03HX016 (ip), vehicle: saline): 8 of 8
- survivor count (dose: 0.13 mg/kg/injection, schedule: Q03HX024 (ip), vehicle: saline): 7 of 8 and 8 of 8
- survivor count (dose: 0.25 mg/kg/injection, schedule: Q01DX009 (ip), vehicle: saline): 8 of 8
- survivor count (dose: 0.25 mg/kg/injection, schedule: Q03HX008 (ip), vehicle: saline): 8 of 8
- survivor count [1]: 8 of 8
- survivor count [2]: 8 of 8
- survivor count [3]: 8 of 8
- survivor count [4]: 8 of 8
- survivor count [5]: 8 of 8
- survivor count [6]: 6 of 8 and 8 of 8
- survivor count (dose: 0.5 mg/kg/injection, schedule: Q04DX003 (ip), vehicle: saline): 8 of 8
- survivor count (dose: 1.0 mg/kg/injection, schedule: Q01DX001 (ip), vehicle: saline): 8 of 8
- survivor count [7]: 8 of 8
- survivor count (dose: 1.0 mg/kg/injection, schedule: Q01DX009 (oral), vehicle: saline): 8 of 8
- survivor count [8]: 3 of 8 and 8 of 8
- survivor count [9]: 4 of 8 and 8 of 8
- survivor count [10]: 6 of 8 and 8 of 8
- survivor count (dose: 1.0 mg/kg/injection, schedule: Q04DX003 (ip), vehicle: saline): 8 of 8
- survivor count (dose: 1.0 mg/kg/injection, schedule: Q08DX002 (ip), vehicle: saline): 8 of 8
- survivor count (dose: 2.0 mg/kg/injection, schedule: Q01DX001 (ip), vehicle: saline): 8 of 8
- survivor count (dose: 2.0 mg/kg/injection, schedule: Q01DX001 (oral), vehicle: saline): 8 of 8
- survivor count [11]: 8 of 8
- survivor count [12]: 8 of 8
- survivor count [13]: 0 of 8 and 1 of 8
- survivor count [14]: 0 of 8 and 4 of 8
- survivor count [15]: 8 of 8
- survivor count [16]: 8 of 8
- survivor count [17]: 8 of 8
- survivor count (dose: 4.0 mg/kg/injection, schedule: Q01DX001 (oral), vehicle: saline): 8 of 8
- survivor count [18]: 4 of 8
- survivor count [19]: 8 of 8
- survivor count [20]: 8 of 8
- survivor count [21]: 8 of 8
- survivor count [22]: 6 of 8 and 7 of 8
- survivor count [23]: 8 of 8
- survivor count [24]: 2 of 8
- survivor count [25]: 7 of 8
- survivor count [26]: 6 of 8 and 8 of 8
- survivor count [27]: 0 of 8
- survivor count [28]: 5 of 8
- survivor count [29]: 0 of 8
- survivor count [30]: 0 of 8
- survivor count [31]: 6 of 8

SMILES: COc1ccc2c(c1OC(C)=O)-c1cc(O)cc3c1C(C2)N(C(=O)CN(CCO)CCO)CC3 (stereo unspecified)
- survivor count (dose: 1.0 mg/kg/injection, schedule: Q01DX001 (ip), vehicle: DMSO): 2 of 2
- survivor count (dose: 10.0 mg/kg/injection, schedule: Q01DX001 (ip), vehicle: DMSO): 2 of 2
- survivor count (dose: 100.0 mg/kg/injection, schedule: Q01DX001 (ip), vehicle: DMSO): 2 of 2

Source: PubChem BioAssay AID188 (DTP/NCI, 2004)
